Source: PMC7862700
Only a part is listed here, and it is no random draw. At the low end of the ranking the order means little.

How the values were obtained:
Assay in all cases: DAPPL (digital affinity profiling via proximity ligation, sequencing)
Settings in all cases: 10 mM Tris-HCl pH 7.5, 50 mM NaCl, 1 mM DTT, 4% glycerol, room temperature, 30 min; GST-TFs on glutathione beads, 16-mer random dsDNA library, 0.1% …; high values mean tight binding; double strand, one strand shown; scale: fold enrichment (6-mer frequency, TF over GST control)
ELK1 = molecular target: T1, ELK1 (UniProt P19419)
T1 sequence: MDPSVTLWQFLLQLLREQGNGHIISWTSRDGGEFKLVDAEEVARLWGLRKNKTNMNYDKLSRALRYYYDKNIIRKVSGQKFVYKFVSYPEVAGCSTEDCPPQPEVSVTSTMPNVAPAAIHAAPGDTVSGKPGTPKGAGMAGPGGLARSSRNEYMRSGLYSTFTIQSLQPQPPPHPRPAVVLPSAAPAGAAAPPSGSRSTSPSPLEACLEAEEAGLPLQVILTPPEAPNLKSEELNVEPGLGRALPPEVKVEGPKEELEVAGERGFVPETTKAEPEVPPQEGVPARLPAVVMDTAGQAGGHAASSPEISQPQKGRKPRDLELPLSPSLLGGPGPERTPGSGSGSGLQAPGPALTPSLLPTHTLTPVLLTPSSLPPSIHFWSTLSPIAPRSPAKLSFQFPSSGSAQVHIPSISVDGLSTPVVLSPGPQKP

ELK3 = molecular target: T2, ELK3 (UniProt P41970)
T2 sequence: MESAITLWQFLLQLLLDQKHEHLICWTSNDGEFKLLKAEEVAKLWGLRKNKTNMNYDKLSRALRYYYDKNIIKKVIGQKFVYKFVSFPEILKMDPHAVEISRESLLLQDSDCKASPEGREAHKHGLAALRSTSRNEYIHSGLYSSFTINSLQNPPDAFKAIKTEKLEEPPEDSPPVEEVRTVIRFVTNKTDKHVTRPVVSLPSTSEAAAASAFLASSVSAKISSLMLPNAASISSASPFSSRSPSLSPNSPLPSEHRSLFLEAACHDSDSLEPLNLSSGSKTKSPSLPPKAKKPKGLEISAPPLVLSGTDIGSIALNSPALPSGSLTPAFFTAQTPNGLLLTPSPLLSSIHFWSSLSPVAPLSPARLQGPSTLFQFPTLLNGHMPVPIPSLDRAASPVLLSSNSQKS

SPIC = molecular target: T3, SPIC (UniProt Q8N5J4)
T3 sequence: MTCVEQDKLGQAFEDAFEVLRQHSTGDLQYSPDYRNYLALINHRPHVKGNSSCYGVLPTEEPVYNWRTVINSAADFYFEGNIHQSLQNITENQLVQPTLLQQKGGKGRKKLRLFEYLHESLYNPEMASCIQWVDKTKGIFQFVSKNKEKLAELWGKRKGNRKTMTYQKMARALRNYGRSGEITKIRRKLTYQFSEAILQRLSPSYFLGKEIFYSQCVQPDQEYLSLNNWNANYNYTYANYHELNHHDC

ETS2 = molecular target: T4, ETS2 (UniProt P15036)
T4 sequence: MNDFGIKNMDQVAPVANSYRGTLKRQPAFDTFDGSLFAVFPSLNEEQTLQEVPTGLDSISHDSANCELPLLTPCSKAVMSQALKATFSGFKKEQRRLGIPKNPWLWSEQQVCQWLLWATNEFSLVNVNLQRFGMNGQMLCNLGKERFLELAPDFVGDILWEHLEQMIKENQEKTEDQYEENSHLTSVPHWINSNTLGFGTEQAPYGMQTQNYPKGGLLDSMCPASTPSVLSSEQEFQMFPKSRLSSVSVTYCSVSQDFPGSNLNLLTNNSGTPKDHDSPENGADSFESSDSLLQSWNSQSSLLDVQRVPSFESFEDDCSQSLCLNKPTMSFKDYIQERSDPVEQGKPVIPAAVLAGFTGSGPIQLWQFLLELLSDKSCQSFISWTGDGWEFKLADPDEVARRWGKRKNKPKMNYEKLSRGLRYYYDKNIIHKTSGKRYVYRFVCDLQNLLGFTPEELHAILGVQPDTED

ETV3 = molecular target: T5, ETV3 (UniProt P41162-2)
T5 sequence: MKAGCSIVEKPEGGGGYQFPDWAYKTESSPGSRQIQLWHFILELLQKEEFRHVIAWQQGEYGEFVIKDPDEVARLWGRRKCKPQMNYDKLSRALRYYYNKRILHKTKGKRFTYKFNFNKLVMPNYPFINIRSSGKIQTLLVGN

GAGGTA
binding signal (ELK1): 0.746
binding signal (ELK3): 0.633
binding signal (SPIC): 0.461
binding signal (ETS2): 0.646
binding signal (ETV3): 0.693

GGCAAC
binding signal (ELK1): 0.925
binding signal (ELK3): 0.839
binding signal (SPIC): 0.869
binding signal (ETS2): 0.902
binding signal (ETV3): 0.857

TCGTAG
binding signal (ELK1): 0.885
binding signal (ELK3): 0.631
binding signal (SPIC): 0.899
binding signal (ETS2): 0.858
binding signal (ETV3): 0.807

CGTAGT
binding signal (ELK1): 0.792
binding signal (ELK3): 0.783
binding signal (SPIC): 0.781
binding signal (ETS2): 0.788
binding signal (ETV3): 0.841

TCGTGG
binding signal (ELK1): 0.758
binding signal (ELK3): 0.725
binding signal (SPIC): 0.654
binding signal (ETS2): 0.778
binding signal (ETV3): 0.74

GAGAGT
binding signal (ELK1): 0.358
binding signal (ELK3): 0.357
binding signal (SPIC): 0.322
binding signal (ETS2): 0.315
binding signal (ETV3): 0.376

CGCAAG
binding signal (ELK1): 0.826
binding signal (ELK3): 0.809
binding signal (SPIC): 0.893
binding signal (ETS2): 0.899
binding signal (ETV3): 0.824

AGTGAG
binding signal (ELK1): 0.253
binding signal (ELK3): 0.26
binding signal (SPIC): 0.251
binding signal (ETS2): 0.253
binding signal (ETV3): 0.275

TGAGCC
binding signal (ELK1): 0.845
binding signal (ELK3): 0.801
binding signal (SPIC): 0.896
binding signal (ETS2): 0.893
binding signal (ETV3): 0.895

GGTTGG
binding signal (ELK1): 0.845
binding signal (ELK3): 0.757
binding signal (SPIC): 0.779
binding signal (ETS2): 0.759
binding signal (ETV3): 0.725

GGGATA
binding signal (ELK1): 0.801
binding signal (ELK3): 0.681
binding signal (SPIC): 0.675
binding signal (ETS2): 0.773
binding signal (ETV3): 0.802

CGTAAG
binding signal (ELK1): 0.741
binding signal (ELK3): 0.788
binding signal (SPIC): 0.746
binding signal (ETS2): 0.756
binding signal (ETV3): 0.713

AGACAG
binding signal (ELK1): 0.515
binding signal (ELK3): 0.496
binding signal (SPIC): 0.47
binding signal (ETS2): 0.534
binding signal (ETV3): 0.49

GCAACG
binding signal (ELK1): 0.998
binding signal (ELK3): 0.94
binding signal (SPIC): 1
binding signal (ETS2): 0.96
binding signal (ETV3): 0.974

GAGTAC
binding signal (ELK1): 0.546
binding signal (ELK3): 0.553
binding signal (SPIC): 0.538
binding signal (ETS2): 0.52
binding signal (ETV3): 0.58

TGAGTG
binding signal (ELK1): 0.446
binding signal (ELK3): 0.463
binding signal (SPIC): 0.548
binding signal (ETS2): 0.474
binding signal (ETV3): 0.495

CAGTAG
binding signal (ELK1): 0.625
binding signal (ELK3): 0.581
binding signal (SPIC): 0.661
binding signal (ETS2): 0.592
binding signal (ETV3): 0.576

ACTGAG
binding signal (ELK1): 0.773
binding signal (ELK3): 0.745
binding signal (SPIC): 0.828
binding signal (ETS2): 0.723
binding signal (ETV3): 0.781

GGCGGC
binding signal (ELK1): 0.594
binding signal (ELK3): 0.574
binding signal (SPIC): 0.514
binding signal (ETS2): 0.556
binding signal (ETV3): 0.59

GTCCGT
binding signal (ELK1): 0.529
binding signal (ELK3): 0.533
binding signal (SPIC): 0.505
binding signal (ETS2): 0.522
binding signal (ETV3): 0.531

TCGGAA
binding signal (ELK1): 0.56
binding signal (ELK3): 0.588
binding signal (SPIC): 0.528
binding signal (ETS2): 0.57
binding signal (ETV3): 0.597

GGGACT
binding signal (ELK1): 0.689
binding signal (ELK3): 0.638
binding signal (SPIC): 0.611
binding signal (ETS2): 0.703
binding signal (ETV3): 0.715

ACCGCG
binding signal (ELK1): 0.928
binding signal (ELK3): 0.791
binding signal (SPIC): 0.929
binding signal (ETS2): 0.87
binding signal (ETV3): 0.863

GGTGAC
binding signal (ELK1): 0.908
binding signal (ELK3): 0.684
binding signal (SPIC): 0.772
binding signal (ETS2): 0.792
binding signal (ETV3): 0.784

TAGGAG
binding signal (ELK1): 0.384
binding signal (ELK3): 0.432
binding signal (SPIC): 0.382
binding signal (ETS2): 0.395
binding signal (ETV3): 0.425

GTGAGA
binding signal (ELK1): 0.313
binding signal (ELK3): 0.293
binding signal (SPIC): 0.253
binding signal (ETS2): 0.337
binding signal (ETV3): 0.309

CGGTGA
binding signal (ELK1): 0.443
binding signal (ELK3): 0.435
binding signal (SPIC): 0.434
binding signal (ETS2): 0.471
binding signal (ETV3): 0.463

ATTGGA
binding signal (ELK1): 0.863
binding signal (ELK3): 0.911
binding signal (SPIC): 0.945
binding signal (ETS2): 0.85
binding signal (ETV3): 0.854

GCGAGA
binding signal (ELK1): 0.508
binding signal (ELK3): 0.505
binding signal (SPIC): 0.526
binding signal (ETS2): 0.533
binding signal (ETV3): 0.475

GGTGAA
binding signal (ELK1): 0.762
binding signal (ELK3): 0.721
binding signal (SPIC): 0.729
binding signal (ETS2): 0.774
binding signal (ETV3): 0.807

AAGACG
binding signal (ELK1): 0.784
binding signal (ELK3): 0.781
binding signal (SPIC): 0.799
binding signal (ETS2): 0.834
binding signal (ETV3): 0.798

TGAAGT
binding signal (ELK1): 0.803
binding signal (ELK3): 0.651
binding signal (SPIC): 0.805
binding signal (ETS2): 0.765
binding signal (ETV3): 0.78

GACGAG
binding signal (ELK1): 0.539
binding signal (ELK3): 0.504
binding signal (SPIC): 0.487
binding signal (ETS2): 0.493
binding signal (ETV3): 0.515

TGACAG
binding signal (ELK1): 0.943
binding signal (ELK3): 0.934
binding signal (SPIC): 0.809
binding signal (ETS2): 0.894
binding signal (ETV3): 0.915

AGCGTG
binding signal (ELK1): 0.333
binding signal (ELK3): 0.346
binding signal (SPIC): 0.37
binding signal (ETS2): 0.353
binding signal (ETV3): 0.416

GCGTGG
binding signal (ELK1): 0.512
binding signal (ELK3): 0.583
binding signal (SPIC): 0.503
binding signal (ETS2): 0.539
binding signal (ETV3): 0.551

GAGTCT
binding signal (ELK1): 0.403
binding signal (ELK3): 0.427
binding signal (SPIC): 0.408
binding signal (ETS2): 0.4
binding signal (ETV3): 0.427

CAGGGC
binding signal (ELK1): 0.807
binding signal (ELK3): 0.765
binding signal (SPIC): 0.74
binding signal (ETS2): 0.736
binding signal (ETV3): 0.819

GCCGGG
binding signal (ELK1): 0.394
binding signal (ELK3): 0.401
binding signal (SPIC): 0.42
binding signal (ETS2): 0.389
binding signal (ETV3): 0.404

AGCGGA
binding signal (ELK1): 0.794
binding signal (ELK3): 0.83
binding signal (SPIC): 0.794
binding signal (ETS2): 0.832
binding signal (ETV3): 0.829

GACAGG
binding signal (ELK1): 0.614
binding signal (ELK3): 0.568
binding signal (SPIC): 0.562
binding signal (ETS2): 0.576
binding signal (ETV3): 0.565

CGGGTT
binding signal (ELK1): 0.896
binding signal (ELK3): 0.737
binding signal (SPIC): 1
binding signal (ETS2): 0.971
binding signal (ETV3): 0.945

TCAGAA
binding signal (ELK1): 0.89
binding signal (ELK3): 0.953
binding signal (SPIC): 0.864
binding signal (ETS2): 0.894
binding signal (ETV3): 0.942

GACTAG
binding signal (ELK1): 0.812
binding signal (ELK3): 0.801
binding signal (SPIC): 0.76
binding signal (ETS2): 0.752
binding signal (ETV3): 0.692

TCGGGG
binding signal (ELK1): 0.414
binding signal (ELK3): 0.405
binding signal (SPIC): 0.371
binding signal (ETS2): 0.38
binding signal (ETV3): 0.388

GTCGAT
binding signal (ELK1): 0.687
binding signal (ELK3): 0.688
binding signal (SPIC): 0.715
binding signal (ETS2): 0.662
binding signal (ETV3): 0.651

AACGGG
binding signal (ELK1): 0.697
binding signal (ELK3): 0.722
binding signal (SPIC): 0.635
binding signal (ETS2): 0.692
binding signal (ETV3): 0.788

GGCGTC
binding signal (ELK1): 0.795
binding signal (ELK3): 0.908
binding signal (SPIC): 0.755
binding signal (ETS2): 0.811
binding signal (ETV3): 0.742

AGGTGA
binding signal (ELK1): 0.631
binding signal (ELK3): 0.591
binding signal (SPIC): 0.501
binding signal (ETS2): 0.567
binding signal (ETV3): 0.53

CCCAGG
binding signal (ELK1): 0.749
binding signal (ELK3): 0.709
binding signal (SPIC): 0.735
binding signal (ETS2): 0.695
binding signal (ETV3): 0.758
